Source: PubChem BioAssay AID917 (NCATS, 2007).

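Mouse Ba/F3 pro-B cells engineered with a human thrombopoietin receptor and a glycoprotein IIb promoter-driven luciferase; luminescence is measured after incubation with compounds, with or without added TPO.
Each compound was tested as a dilution series from about 0.0025 to 38 µM.
The number is a fitted AC50, and a lower value means a more potent compound; the curve note shows whether the light signal rose or fell.
Well-fitted complete curves, or well-fitted partial curves with high efficacy, are called active, flat curves inactive, and all other curves, including signal decreases, inconclusive.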

Values are in µM.
All entries here are filed as inconclusive.
Only part of the assay is shown, chiefly results filed as inconclusive.
A potency from a partial, single-point or poor curve is only a rough figure.
Some entries filed as inconclusive have a full curve.
The first word of each remark tells which way the curve ran; it can be opposite to the aim of the assay.

Compound: Nn1nnc2ccccc21
setting: stimulated with TPO at its EC50
potency (µM): 1
curve as filed: inhibitor, full curve, poor fit

Compound: CCCCC[C@H](CC(=O)NO)C(=O)N[C@@H](C(=O)N1CCC[C@H]1CO)C(C)C
setting: stimulated with TPO at its EC50
potency (µM): 12.59
curve as filed: inhibitor, partial curve

Compound: NC(=O)c1ncn([C@@H]2O[C@H](CO)[C@@H](O)[C@H]2O)n1
potency (µM): 12.59
curve as filed: inhibitor, partial curve, poor fit

Compound: NOCC(=O)O
setting: stimulated with TPO at its EC50
potency (µM): 5.012
curve as filed: inhibitor, single point

Compound: CNCCc1ccc(O)c(O)c1
potency (µM): 12.59
curve as filed: inhibitor, partial curve

Compound: C[C@@H]([C@H](O)c1ccc(O)cc1)N1CCC(Cc2ccccc2)CC1
setting: stimulated with TPO at its EC50
potency (µM): 12.59
curve as filed: inhibitor, single point

Compound: CN(C(=O)Cc1ccc(Cl)c(Cl)c1)[C@@H](CN1CCCC1)c1cccc(OCC(=O)O)c1
potency (µM): 25.12
curve as filed: inhibitor, single point

Compound: O=c1c(O)c(-c2ccc(O)cc2O)oc2cc(O)cc(O)c12
setting: stimulated with TPO at its EC50
potency (µM): 3.162
curve as filed: inhibitor, full curve, poor fit

Compound: C#CCN(C)CCCOc1ccc(Cl)cc1Cl
setting: stimulated with TPO at its EC50
potency (µM): 3.981
curve as filed: activator, full curve

Compound: CCCCCCCCCCCCCC(=O)O[C@H]1[C@@H](C)[C@@]2(O)[C@@H](C=C(CO)C[C@]3(O)C(=O)C(C)=C[C@@H]23)C2C(C)(C)[C@]21OC(C)=O (some centres undefined)
potency (µM): 12.59
curve as filed: inhibitor, single point

Compound: CC(=O)N[C@@H](CS)C(=O)O
setting: stimulated with TPO at its EC50
potency (µM): 31.62
curve as filed: inhibitor, single point

Compound: Oc1ccccc1O
potency (µM): 5.012
curve as filed: inhibitor, partial curve

Compound: OC(CN1CCC(Cc2ccc(F)cc2)CC1)c1ccc(Cl)cc1 (centres undefined)
setting: stimulated with TPO at its EC50
potency (µM): 15.85
curve as filed: inhibitor, single point

Compound: C[C@@](Cc1ccc(O)c(O)c1)(NN)C(=O)O
setting: stimulated with TPO at its EC50
potency (µM): 25.12
curve as filed: inhibitor, single point

Compound: C[C@@H](CCc1ccccc1)NC[C@H](O)c1ccc(O)c(C(N)=O)c1
setting: stimulated with TPO at its EC50
potency (µM): 10
curve as filed: inhibitor, partial curve

Compound: CC(C)NC[C@@H](O)COc1cccc2ccccc12
setting: stimulated with TPO at its EC50
potency (µM): 0.3162
curve as filed: inhibitor, partial curve

Repeated from the top, 2 entries:

{"compound": "Nn1nnc2ccccc21", "setting": "stimulated with TPO at its EC50", "potency (µM)": "1", "curve as filed": "inhibitor, full curve, poor fit"}
{"compound": "CCCCC[C@H](CC(=O)NO)C(=O)N[C@@H](C(=O)N1CCC[C@H]1CO)C(C)C", "setting": "stimulated with TPO at its EC50", "potency (µM)": "12.59", "curve as filed": "inhibitor, partial curve"}